Some of the results follow. These are raw signals, not scaled to a control.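 First-pass screen: polymyxin B was added at a level that permeabilizes the Salmonella outer membrane while sparing the inner membrane. DMSO wells, with and without polymyxin B, defined maximum growth. Because plates differed from one another, each plate's data were ranked separately and the compounds with the lowest OD600 were carried forward as hits.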
Test system: Salmonella enterica serovar Typhimurium SL1344
Test: bacterial growth OD600 after 18 h with compound and polymyxin B; higher = more bacterial growth (less inhibition)
Conditions: 50 µM, Mueller-Hinton broth

**Q.** Which “bacterial growth OD600” value (polymyxin B 0.75 µg/mL) does the source give for `CC(C)N1CCN(Cc2cn(Cc3ccccc3)nc2-c2ccc3c(c2)OCO3)CC1` here?
**A.** 0.9

**Q.** `O=C(NCCN1CCOCC1)c1csc2nc(-c3ccccc3)cn12` was tested. Which “bacterial growth OD600” value (polymyxin B 1 µg/mL) did it give?
**A.** 1.06

**Q.** How did the “bacterial growth OD600” value (polymyxin B 1 µg/mL) turn out when `Cc1cccc(CN2CCCC(C(=O)Nc3ccccc3Oc3cccnc3)C2)c1` (configuration not stated) was run?
**A.** 0.663

**Q.** How did the “bacterial growth OD600” value (polymyxin B 0.75 µg/mL) turn out when `COc1ccc(CN2C[C@@H]3C[C@@H](c4ccccc4)N4CCC[C@@]34C2=O)cc1` was run?
**A.** 0.807

**Q.** `COc1cc(C)ccc1OCc1nc(C(=O)N(C)Cc2ccc(C)cc2)co1` was tested. Which “bacterial growth OD600” value (polymyxin B 0.75 µg/mL) did it give?
**A.** 0.292

**Q.** For `CCC(COC)NC(=O)c1cc(Cn2c(C)nc3ccccc32)on1` (configuration not stated), which “bacterial growth OD600” value (polymyxin B 1 µg/mL) is on record?
**A.** 1.14

**Q.** For `Cc1ccc(CNc2nc(CN3CCSCC3)nc3ccccc23)cc1`, which “bacterial growth OD600” value (polymyxin B 0.75 µg/mL) is on record?
**A.** 0.97

**Q.** How did the “bacterial growth OD600” value (polymyxin B 1 µg/mL) turn out when `CN(CC1CCCN(CCc2cccc(C(F)(F)F)c2)C1)C(=O)Cc1cccnc1` (configuration not stated) was run?
**A.** 0.803

**Q.** For `O=C(NCCN1Cc2ccccc2OC(c2ccccc2)C1)C1=CCCCC1` (configuration not stated), which “bacterial growth OD600” value (polymyxin B 0.75 µg/mL) is on record?
**A.** 0.008

**Q.** Which “bacterial growth OD600” value (polymyxin B 0.75 µg/mL) does the source give for `Cc1occc1C(=O)NC1CC(C)(C)Cc2nc(N3CCOCC3)ncc21` (configuration not stated) here?
**A.** 0.815

**Q.** How did the “bacterial growth OD600” value (polymyxin B 0.75 µg/mL) turn out when `CN(CCC1CCOCC1)C(=O)c1csc2nc(-c3ccc(F)cc3)cn12` was run?
**A.** 0.861

**Q.** Which “bacterial growth OD600” value (polymyxin B 1 µg/mL) does the source give for `Cc1c(C(=O)N(C)CCCCN2CCOCC2)oc2c(F)cccc12` here?
**A.** 1.15

**Q.** `CCOC(=O)CNC(=O)N1CCCC(Nc2cccc(F)c2)C1` (configuration not stated) was tested. Which “bacterial growth OD600” value (polymyxin B 1 µg/mL) did it give?
**A.** 0.902

**Q.** How did the “bacterial growth OD600” value (polymyxin B 1 µg/mL) turn out when `Cc1ccccc1N1CCN(c2ncccc2CNC(=O)C2CC=CCC2)CC1` (configuration not stated) was run?
**A.** 0.362

**Q.** `CSc1ncc(CN2CCC(CCC(=O)NCc3cccnc3)CC2)cn1` was tested. Which “bacterial growth OD600” value (polymyxin B 1 µg/mL) did it give?
**A.** 0.949

**Q.** With `COc1ccc(Cc2nc3ccc(C(=O)NCC4CCCO4)cc3o2)cc1` (configuration not stated) as the molecule, how does the “bacterial growth OD600” value (polymyxin B 0.75 µg/mL) read?
**A.** 0.665

**Q.** Which “bacterial growth OD600” value (polymyxin B 1 µg/mL) does the source give for `OCCC1CN(Cc2c(F)ccc(F)c2F)CCN1Cc1ccccc1F` (configuration not stated) here?
**A.** 1.16

**Q.** For `COc1ccc(CC2(CCC(=O)N3CCCC(COc4ccc(C)cc4)C3)CCC(=O)N2)cc1OC` (configuration not stated), which “bacterial growth OD600” value (polymyxin B 0.75 µg/mL) is on record?
**A.** 0.764

**Q.** How did the “bacterial growth OD600” value (polymyxin B 1 µg/mL) turn out when `CC(C)N1CCN(CC2(O)CCCN(Cc3ccc(F)cc3)C2=O)CC1` (configuration not stated) was run?
**A.** 1.01

**Q.** With `CCCC(=O)NC1CC(C)(C)Cc2c1cnn2-c1ccccc1` (configuration not stated) as the molecule, how does the “bacterial growth OD600” value (polymyxin B 0.75 µg/mL) read?
**A.** 0.688

**Q.** `COc1cccc(CCC(=O)N(CCc2ccccc2)CC2CCCN(C)C2)c1` (configuration not stated) was tested. Which “bacterial growth OD600” value (polymyxin B 1 µg/mL) did it give?
**A.** 0.767

**Q.** With `CC(=O)NCCNC(=O)CC(c1ccccc1)c1ccc(Cl)cc1` (configuration not stated) as the molecule, how does the “bacterial growth OD600” value (polymyxin B 1 µg/mL) read?
**A.** 0.896

**Q.** Which “bacterial growth OD600” value (polymyxin B 1 µg/mL) does the source give for `CN(C(=O)c1ccc2cc[nH]c2c1)C1CCCN(Cc2ccccc2F)C1` (configuration not stated) here?
**A.** 0.873

**Q.** How did the “bacterial growth OD600” value (polymyxin B 0.75 µg/mL) turn out when `O=C(c1cc(CCc2ccccc2)no1)N1CCCC(c2ccccc2)C1` (configuration not stated) was run?
**A.** -0.004

**Q.** How did the “bacterial growth OD600” value (polymyxin B 1 µg/mL) turn out when `Cc1c(C(C)NC(=O)CCCN2CCCC2=O)cnn1-c1cccc2ccccc12` (configuration not stated) was run?
**A.** 0.848

**Q.** For `COCC(=O)Nc1cc(C(=O)N2CCN(C(=O)c3ccco3)CC2)c2c(c1)nc(C1CCC1)n2C`, which “bacterial growth OD600” value (polymyxin B 0.75 µg/mL) is on record?
**A.** 0.862

**Q.** Which “bacterial growth OD600” value (polymyxin B 1 µg/mL) does the source give for `COc1ccccc1Oc1ncccc1CNC(=O)c1ccncc1` here?
**A.** 0.834

**Q.** For `COc1ccc(F)c(CN2CCCC3(CCN(c4nc(C)cc(C)n4)C3)C2=O)c1` (configuration not stated), which “bacterial growth OD600” value (polymyxin B 1 µg/mL) is on record?
**A.** 0.57

**Q.** How did the “bacterial growth OD600” value (polymyxin B 0.75 µg/mL) turn out when `O=C(CN1Cc2ccccc2OC(c2ccsc2)C1)N1CCC(N2CCOCC2)CC1` (configuration not stated) was run?
**A.** 0.836

**Q.** For `O=C1N(CCc2ccccc2)C[C@@H]2C[C@@H](c3cccn3-c3ccccn3)N3CCC[C@@]123`, which “bacterial growth OD600” value (polymyxin B 0.75 µg/mL) is on record?
**A.** 0.797

**Q.** Which “bacterial growth OD600” value (polymyxin B 1 µg/mL) does the source give for `CCCc1cc(CNC(=O)c2ccc(N3CCCN(CCC)CC3)nc2)on1` here?
**A.** 1.03

**Q.** How did the “bacterial growth OD600” value (polymyxin B 1 µg/mL) turn out when `CN(Cc1ccc2nsnc2c1)Cc1nc(-c2cnccn2)no1` was run?
**A.** 0.968

From the supplement of paper PMC12889115
